Results taken from article PMC11624273.

Amino acid sequences for entries named in this document (tags omitted).
UniProt Q9GZV5: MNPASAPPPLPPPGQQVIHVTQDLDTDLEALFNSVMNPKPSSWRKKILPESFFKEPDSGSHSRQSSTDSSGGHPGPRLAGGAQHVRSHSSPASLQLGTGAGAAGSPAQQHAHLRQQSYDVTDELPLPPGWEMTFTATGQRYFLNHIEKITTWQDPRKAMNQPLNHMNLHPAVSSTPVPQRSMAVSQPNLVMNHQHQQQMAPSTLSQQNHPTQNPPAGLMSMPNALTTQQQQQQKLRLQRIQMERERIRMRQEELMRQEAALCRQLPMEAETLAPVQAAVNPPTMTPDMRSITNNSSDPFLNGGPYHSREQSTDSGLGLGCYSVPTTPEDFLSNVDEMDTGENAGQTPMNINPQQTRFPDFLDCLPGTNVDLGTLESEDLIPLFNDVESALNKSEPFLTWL

Biological target: MPP7 ΔPDZ (pCDNA3-Flag-Mpp7 △PDZ) (human) (UniProt Q5T2T1)
Test: co-IP; lysates of transfected 293T cells incubated with anti-FLAG M2 magnetic beads or anti-V5 agarose beads at 4 °C for 4 h or overnight; washed three times with NP-40 lysis buffer (50 mM Tris-HCl pH 8.0, 150 mM NaCl, 1% NP-40, 0.5 mM DTT) and once with PBS; Western blot with anti-HA, anti-V5 or …

V5-TAZ (from UniProt Q9GZV5 1-400) was tested, and the binding was “no binding”.

No constants are given. Whether binding was seen depends on the method and setting. In cells and extracts the contact can be indirect.
